In patent US10087478B2, “Compositions comprising a polypeptide having cellulolytic enhancing activity and a nitrogen-containing compound and uses thereof” (priority 2010, dated 2018):
Some entries share one result that the patent states for a list of compounds. At least one compound was matched to its structure with a doubt left.

Tested on: Trichoderma reesei cellulase composition
Experiment: Nitrogen-containing compound effect(no GH61) on hydrolysis of AVICEL by T. reesei cellulase composition
Type: biochemical
Conditions: pterin dissolved in DMSO; cellulose 29.5 mg per ml; general statement (FIGS. 1C, 1D)
Procedure: The concentration of 1,2-benzenediamine compounds was 5 mM and the concentration of 2-aminophenol was 1 mM.
The concentration of nitrogen-containing compounds was 5 mM.
The concentration of the GH61 polypeptide was either 0.4 or 2 mg per g cellulose.

C[C@H](O)[C@H](O)[C@H]1CNc2nc(N)[nH]c(=O)c2N1.Cl.Cl [(6R)-5,6,7,8-tetrahydrobiopterin dihydrochloride]
nitrogen-containing compound effect(no GH61): less than 1
